Measured values published in patent US7901867B2, “Sulphonium salt initiators” (BASF SE, priority 2005, dated 2011).

Experiment: Yellowing of the cured coating, b* (CIE lab) value

## COC(=O)c1ccccc1[S+](c1ccc(OC)cc1)c1ccc(C(C)C)cc1 (centres unmarked) [Example 2, (4-isopropyl-phenyl)-(2-methoxycarbonyl-phenyl)-(4-methoxyphenyl) sulfonium hexafluorophosphate]
1% compound in epoxy/oxetane formulation of example 28 on white chipboard, 1×120 W/cm medium pressure mercury lamp, belt 20 m/min
  initial b* value (CIE lab) after the irradiation: 3.8
As initial value, then 16 h additional exposure to fluorescent tube (TLK40/05)
  b* value (CIE lab) after 16 h of additional exposure: 4.4
